From article doi:10.1101/2025.08.29.668156
No constants are given. Whether binding was seen depends on the method and setting. In cells and extracts the contact can be indirect. A yes stands for co-enrichment or nearness to the bait. Other partners may have been found.

By UniProt entry, the sequences of proteins in these tests, tags left out.
UniProt P02545: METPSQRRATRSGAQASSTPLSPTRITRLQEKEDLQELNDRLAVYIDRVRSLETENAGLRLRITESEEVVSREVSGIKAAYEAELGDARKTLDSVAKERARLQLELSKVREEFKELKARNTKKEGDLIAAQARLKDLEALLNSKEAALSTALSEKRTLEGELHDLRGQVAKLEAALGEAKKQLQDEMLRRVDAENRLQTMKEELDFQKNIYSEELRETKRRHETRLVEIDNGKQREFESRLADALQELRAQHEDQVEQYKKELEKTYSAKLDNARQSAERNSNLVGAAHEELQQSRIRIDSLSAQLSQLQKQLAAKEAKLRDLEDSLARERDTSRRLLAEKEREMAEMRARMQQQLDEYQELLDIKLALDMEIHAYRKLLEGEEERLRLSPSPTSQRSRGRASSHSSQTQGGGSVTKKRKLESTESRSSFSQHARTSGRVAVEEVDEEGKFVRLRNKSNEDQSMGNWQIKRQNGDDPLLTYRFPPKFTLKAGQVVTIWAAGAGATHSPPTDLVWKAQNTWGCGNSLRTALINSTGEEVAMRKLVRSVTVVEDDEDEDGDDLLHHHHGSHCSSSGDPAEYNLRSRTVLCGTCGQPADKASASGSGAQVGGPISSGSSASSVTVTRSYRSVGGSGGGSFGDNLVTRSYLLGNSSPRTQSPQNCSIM
UniProt P20339: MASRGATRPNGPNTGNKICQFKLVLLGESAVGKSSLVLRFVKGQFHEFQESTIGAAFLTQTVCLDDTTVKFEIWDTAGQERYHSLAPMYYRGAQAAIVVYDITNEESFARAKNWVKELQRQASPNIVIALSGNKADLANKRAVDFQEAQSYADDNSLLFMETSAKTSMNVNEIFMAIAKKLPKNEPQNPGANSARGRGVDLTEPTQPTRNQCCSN

B1: LEMD3 (protein, UniProt Q9Y2U8 1-911)
chain: MAAAAASAPQQLSDEELFSQLRRYGLSPGPVTESTRPVYLKKLKKLREEEQQQHRSGGRGNKTRNSNNNNTAAATVAAAGPAAAAAAGMGVRPVSGDLSYLRTPGGLCRISASGPESLLGGPGGASAAPAAGSKVLLGFSSDESDVEASPRDQAGGGGRKDRASLQYRGLKAPPAPLAASEVTNSNSAERRKPHSWWGARRPAGPELQTPPGKDGAVEDEEGEGEDGEERDPETEEPLWASRTVNGSRLVPYSCRENYSDSEEEDDDDVASSRQVLKDDSLSRHRPRRTHSKPLPPLTAKSAGGRLETSVQGGGGLAMNDRAAAAGSLDRSRNLEEAAAAEQGGGCDQVDSSPVPRYRVNAKKLTPLLPPPLTDMDSTLDSSTGSLLKTNNHIGGGAFSVDSPRIYSNSLPPSAAVAASSSLRINHANHTGSNHTYLKNTYNKPKLSEPEEELLQQFKREEVSPTGSFSAHYLSMFLLTAACLFFLILGLTYLGMRGTGVSEDGELSIENPFGETFGKIQESEKTLMMNTLYKLHDRLAQLAGDHECGSSSQRTLSVQEAAAYLKDLGPEYEGIFNTSLQWILENGKDVGIRCVGFGPEEELTNITDVQFLQSTRPLMSFWCRFRRAFVTVTHRLLLLCLGVVMVCVVLRYMKYRWTKEEEETRQMYDMVVKIIDVLRSHNEACQENKDLQPYMPIPHVRDSLIQPHDRKKMKKVWDRAVDFLAANESRVRTETRRIGGADFLVWRWIQPSASCDKILVIPSKVWQGQAFHLDRRNSPPNSLTPCLKIRNMFDPVMEIGDQWHLAIQEAILEKCSDNDGIVHIAVDKNSREGCVYVKCLSPEYAGKAFKALHGSWFDGKLVTVKYLRLDRYHHRFPQALTSNTPLKPSNKHMNSMSHLRLRTGLTNSQGSS
B2: SYNE3 (Nesprin-3) (protein, UniProt Q6ZMZ3 1-975)
chain: MTQQPQDDFDRSVEDAQAWMKAVQDQLQVNDNTQGPRAALEARLWETEKICQLEPEGRVRVDLVLRMAEALLACCPGDQKPGILARLKDIKAQWEETVTYMTHCHSRIEWVWLHWSEYLLARDEFYRWFQKMMVTLEPHIELQLGLKEKQWQLSHAQVLLHNVDNQAVLLDRLLEEAASLFNRIGDPSVDEDAQKRMKAEYDAVKAKAQKRVDLLEQVAREHEEYQAGVDEFQLWLKAVVEKVNGCLGRNCKLPITQRLSTLQDIAKDFPRGEESLETLEEQSAGVIRNTSPLGAEKITGELEEMRKVLEKLRALWEEEEERLRGLLRSRGAWEQQIKQLEAELSEFRMVLQRLAQEGLQPAAKAGTEDELVAHWRRYSATRAALASEEPRVDRLQAQLKELIVFPHNLKPLSDSVIATIQEYQSLKVKSARLRNAAAVELWQHFQRPLQDLQLWKALAQRLLEVTASLPDLPSLHTFLPQIEAALMESSRLKELLTMLQLKKDLLIGIFGQERATALLEQVAGSMRDRDLLHNSLLQRKSKLQSLLAQHKDFGAAFEPLQRKLLDLQVRVQAEKGLQRDLPGKQAQLSRLQGLQEEGLDLGAQMEAARPLVQENPNHQHKMDQLSSDFQALQRSLEDLVDRCRQSVQEHCTFSHQLLELRQWIVVTTQKLEAHRGEAGPGDAESQEAEFERLVAEFPEKEAQLSLVEAQGWLVMEKSSPEGAAVVQEELRELAESWRALRLLEESLLSLIRNWHLQRMEVDSGKKMVFTNNIPKSGFLINPMDPIPRHRRRANLLQEEEGSHEDFSQLLRNFGQWLQVENSKLVRIIAMRTSTAEDLRTRKSKLQELEARVPEGQHLFENLLRLGPARGTSDELEDLRYQWMLYKSKLKDSGHLLTQSSPGEPTGFQKTRRWRGLGSLFRRACCVALPLQLLLLLFLLLLFLLPIREEDRSCTLANNFARSFTLMLRYNGPPPT
B3: ZMPSTE24 (protein, UniProt O75844 1-475)
chain: MGMWASLDALWEMPAEKRIFGAVLLFSWTVYLWETFLAQRQRRIYKTTTHVPPELGQIMDSETFEKSRLYQLDKSTFSFWSGLYSETEGTLILLFGGIPYLWRLSGRFCGYAGFGPEYEITQSLVFLLLATLFSALTGLPWSLYNTFVIEEKHGFNQQTLGFFMKDAIKKFVVTQCILLPVSSLLLYIIKIGGDYFFIYAWLFTLVVSLVLVTIYADYIAPLFDKFTPLPEGKLKEEIEVMAKSIDFPLTKVYVVEGSKRSSHSNAYFYGFFKNKRIVLFDTLLEEYSVLNKDIQEDSGMEPRNEEEGNSEEIKAKVKNKKQGCKNEEVLAVLGHELGHWKLGHTVKNIIISQMNSFLCFFLFAVLIGRKELFAAFGFYDSQPTLIGLLIIFQFIFSPYNEVLSFCLTVLSRRFEFQADAFAKKLGKAKDLYSALIKLNKDNLGFPVSDWLFSMWHYSHPPLLERLQALKTMKQH
B4: CCT2 (protein, UniProt P78371 1-535)
chain: MASLSLAPVNIFKAGADEERAETARLTSFIGAIAIGDLVKSTLGPKGMDKILLSSGRDASLMVTNDGATILKNIGVDNPAAKVLVDMSRVQDDEVGDGTTSVTVLAAELLREAESLIAKKIHPQTIIAGWREATKAAREALLSSAVDHGSDEVKFRQDLMNIAGTTLSSKLLTHHKDHFTKLAVEAVLRLKGSGNLEAIHIIKKLGGSLADSYLDEGFLLDKKIGVNQPKRIENAKILIANTGMDTDKIKIFGSRVRVDSTAKVAEIEHAEKEKMKEKVERILKHGINCFINRQLIYNYPEQLFGAAGVMAIEHADFAGVERLALVTGGEIASTFDHPELVKLGSCKLIEEVMIGEDKLIHFSGVALGEACTIVLRGATQQILDEAERSLHDALCVLAQTVKDSRTVYGGGCSEMLMAHAVTQLANRTPGKEAVAMESYAKALRMLPTIIADNAGYDSADLVAQLRAAHSEGNTTAGLDMREGTIGDMAILGITESFQVKRQVLLSAAEAAEVILRVDNIIKAAPRKRVPDHHPC
B5: ST13 (protein, UniProt P50502 1-369)
chain: MDPRKVNELRAFVKMCKQDPSVLHTEEMRFLREWVESMGGKVPPATQKAKSEENTKEEKPDSKKVEEDLKADEPSSEESDLEIDKEGVIEPDTDAPQEMGDENAEITEEMMDQANDKKVAAIEALNDGELQKAIDLFTDAIKLNPRLAILYAKRASVFVKLQKPNAAIRDCDRAIEINPDSAQPYKWRGKAHRLLGHWEEAAHDLALACKLDYDEDASAMLKEVQPRAQKIAEHRRKYERKREEREIKERIERVKKAREEHERAQREEEARRQSGAQYGSFPGGFPGGMPGNFPGGMPGMGGGMPGMAGMPGLNEILSDPEVLAAMQDPEVMVAFQDVAQNPANMSKYQSNPKVMNLISKLSAKFGGQA
B6: DNAJC7 (protein, UniProt Q99615 1-494)
chain: MAAAAECDVVMAATEPELLDDQEAKREAETFKEQGNAYYAKKDYNEAYNYYTKAIDMCPKNASYYGNRAATLMMLGRFREALGDAQQSVRLDDSFVRGHLREGKCHLSLGNAMAACRSFQRALELDHKNAQAQQEFKNANAVMEYEKIAETDFEKRDFRKVVFCMDRALEFAPACHRFKILKAECLAMLGRYPEAQSVASDILRMDSTNADALYVRGLCLYYEDCIEKAVQFFVQALRMAPDHEKACIACRNAKALKAKKEDGNKAFKEGNYKLAYELYTEALGIDPNNIKTNAKLYCNRGTVNSKLRKLDDAIEDCTNAVKLDDTYIKAYLRRAQCYMDTEQYEEAVRDYEKVYQTEKTKEHKQLLKNAQLELKKSKRKDYYKILGVDKNASEDEIKKAYRKRALMHHPDRHSGASAEVQKEEEKKFKEVGEAFTILSDPKKKTRYDSGQDLDEEGMNMGDFDPNNIFKAFFGGPGGFSFEASGPGNFFFQFG

Experiments:
Test in all cases: proximity labelling
[1] = target: LMNA N-terminally fused to TurboID (UniProt P02545)
[2] = target: LMNA N-terminally fused to ultraID (UniProt P02545)
[3] = target: LMNA N-terminally fused to miniTurbo (UniProt P02545)
[4] = target: LMNA N-terminally fused to BASU (UniProt P02545)
miniTurbo-RAB5A = miniTurbo-RAB5A (UniProt P20339)

Binder	binding [1]	binding [2]	binding [3]	binding [4]	binding (miniTurbo-RAB5A)
B1	binds	binds	binds	binds	
B2	binds	binds	binds	binds	
B3	binds	binds			
B4					binds
B5					binds
B6					binds
